For assay [1], the target named is T1, p190RhoGAP, endogenous in neonatal rat cardiomyocytes (rat (endogenous in NRCM)) (UniProt P81128).
T1 sequence: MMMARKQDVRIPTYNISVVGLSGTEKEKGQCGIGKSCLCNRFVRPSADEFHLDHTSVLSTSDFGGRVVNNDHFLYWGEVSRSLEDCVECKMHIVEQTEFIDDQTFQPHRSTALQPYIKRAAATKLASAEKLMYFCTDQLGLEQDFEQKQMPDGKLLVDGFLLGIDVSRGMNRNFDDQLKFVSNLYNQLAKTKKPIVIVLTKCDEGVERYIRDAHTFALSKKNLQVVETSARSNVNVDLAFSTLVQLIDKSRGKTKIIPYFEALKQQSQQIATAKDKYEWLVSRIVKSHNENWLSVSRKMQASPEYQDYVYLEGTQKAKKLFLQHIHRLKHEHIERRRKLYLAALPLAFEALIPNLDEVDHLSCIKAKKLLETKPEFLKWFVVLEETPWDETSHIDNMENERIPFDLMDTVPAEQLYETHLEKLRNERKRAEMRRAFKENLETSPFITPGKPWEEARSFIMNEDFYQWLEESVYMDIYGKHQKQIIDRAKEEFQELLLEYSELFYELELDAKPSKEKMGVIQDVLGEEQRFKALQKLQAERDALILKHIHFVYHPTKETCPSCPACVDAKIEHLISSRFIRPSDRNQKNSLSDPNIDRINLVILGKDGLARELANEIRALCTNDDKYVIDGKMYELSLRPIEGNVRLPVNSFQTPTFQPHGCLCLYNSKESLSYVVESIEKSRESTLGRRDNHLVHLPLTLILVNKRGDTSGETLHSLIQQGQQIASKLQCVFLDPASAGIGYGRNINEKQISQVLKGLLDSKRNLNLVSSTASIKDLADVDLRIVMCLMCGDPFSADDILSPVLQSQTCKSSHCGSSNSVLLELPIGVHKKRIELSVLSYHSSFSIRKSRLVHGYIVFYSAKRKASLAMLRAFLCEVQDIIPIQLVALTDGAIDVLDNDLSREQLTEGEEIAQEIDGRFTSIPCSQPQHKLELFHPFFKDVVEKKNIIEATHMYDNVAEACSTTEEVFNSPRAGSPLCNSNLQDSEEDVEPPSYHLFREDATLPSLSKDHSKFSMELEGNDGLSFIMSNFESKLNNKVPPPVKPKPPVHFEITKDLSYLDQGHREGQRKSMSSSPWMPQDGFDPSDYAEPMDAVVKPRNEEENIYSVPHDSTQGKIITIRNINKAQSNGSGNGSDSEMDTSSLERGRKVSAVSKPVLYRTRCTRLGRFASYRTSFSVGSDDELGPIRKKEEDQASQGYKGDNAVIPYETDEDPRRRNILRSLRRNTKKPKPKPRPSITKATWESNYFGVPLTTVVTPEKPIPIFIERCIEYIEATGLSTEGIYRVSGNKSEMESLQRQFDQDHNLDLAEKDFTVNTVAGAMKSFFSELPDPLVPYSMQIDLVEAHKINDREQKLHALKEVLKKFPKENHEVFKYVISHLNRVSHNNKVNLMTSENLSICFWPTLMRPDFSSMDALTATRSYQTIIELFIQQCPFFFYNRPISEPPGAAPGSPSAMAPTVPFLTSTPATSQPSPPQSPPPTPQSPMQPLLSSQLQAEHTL
Put plainly: co-IP; lysates of NRCM transduced with Ad-RGS3L-N460A, stimulated without or with 1 mM carbachol for 5 min; IP with anti-RGS3 or anti-p190RhoGAP antibody and protein-A-sepharose, 4 °C; buffer 50 mM Tris-HCl pH 7.4, 2 mM EDTA, 150 mM NaCl, 0.1% SDS, 1% Nonidet P-40, 10 mM NaF; immunoblot; carbachol increased the co-precipitate two-to-threefold. In general terms: Immunoblotting shows a protein as a band on a membrane.

Amino acid sequences for entries named in this document (tags omitted). A change or cut given only in a name is not applied to a line headed by its entry. Chains listed by the source or under a name are the forms on record and can include a tag or linker.
UniProt P61586: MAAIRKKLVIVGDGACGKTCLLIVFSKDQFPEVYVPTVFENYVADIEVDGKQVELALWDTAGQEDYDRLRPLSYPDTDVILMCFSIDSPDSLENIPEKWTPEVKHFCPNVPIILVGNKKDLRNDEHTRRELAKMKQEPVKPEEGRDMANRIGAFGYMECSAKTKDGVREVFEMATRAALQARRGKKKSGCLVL
RGS3L-N460A (GAP-deficient mutant of the long isoform of regulator of G protein signaling 3) (P49796-1, form named): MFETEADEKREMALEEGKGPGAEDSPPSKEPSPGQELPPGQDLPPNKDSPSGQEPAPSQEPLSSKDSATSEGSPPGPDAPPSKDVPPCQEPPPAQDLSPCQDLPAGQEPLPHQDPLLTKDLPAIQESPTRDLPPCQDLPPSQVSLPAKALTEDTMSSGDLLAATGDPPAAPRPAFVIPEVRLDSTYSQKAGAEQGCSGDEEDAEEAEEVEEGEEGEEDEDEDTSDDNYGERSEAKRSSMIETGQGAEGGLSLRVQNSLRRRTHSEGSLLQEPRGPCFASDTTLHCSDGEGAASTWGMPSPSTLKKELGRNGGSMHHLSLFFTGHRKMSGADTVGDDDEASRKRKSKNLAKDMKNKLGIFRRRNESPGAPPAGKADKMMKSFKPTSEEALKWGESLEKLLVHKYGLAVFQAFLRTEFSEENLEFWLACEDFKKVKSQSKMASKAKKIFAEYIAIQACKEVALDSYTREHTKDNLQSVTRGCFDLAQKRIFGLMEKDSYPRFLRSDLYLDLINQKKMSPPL

Assay [2] has as its target constitutively active RhoAQ63L-GST (UniProt P61586). In words: pull-down; lysates of NRCM transduced with Ad-EGFP or Ad-RGS3L-N460A, without or with carbachol for 5 min; incubated 60 min at 4 °C with glutathione-sepharose magnetic beads coated with RhoAQ63L-GST or Rac1Q61L-GST; 50 mM Tris-HCl pH 7.4, 10 mM MgCl2, 150 mM NaCl, 1 mM DTT, 1% Triton X-100; endogenous p190RhoGAP detected by immunoblot; only the target purified.

The target in assay [3] is RGS3L-N460A (GAP-deficient mutant of the long isoform of regulator of G protein signaling 3) (UniProt P49796). In words: co-IP; lysates of NRCM transduced with Ad-RGS3L-N460A, stimulated without or with 1 mM carbachol for 5 min; IP with anti-RGS3 or anti-p190RhoGAP antibody and protein-A-sepharose, 4 °C; buffer 50 mM Tris-HCl pH 7.4, 2 mM EDTA, 150 mM NaCl, 0.1% SDS, 1% Nonidet P-40, 10 mM NaF; immunoblot; carbachol increased the co-precipitate two-to-threefold.

The target of assay [4] is constitutively active RhoAQ63L-GST (UniProt P61586). Put plainly: pull-down; lysates of HEK-293 cells transfected with p190RhoGAP, with or without RGS3L-N460A, RGS3L or RGS3S; incubated 60 min at 4 °C with glutathione-sepharose magnetic beads coated with RhoAQ63L-GST or Rac1Q61L-GST; 50 mM Tris-HCl pH 7.4, 10 mM MgCl2, 150 mM NaCl, 1 mM DTT, 1% Triton X-100; p190RhoGAP detected by immunoblot; only the target purified.

Experimental findings from article PMC8888479 are described below.

No constants are given. Whether binding was seen depends on the method and setting. In cells and extracts the contact can be indirect. Some entries that bind do so weakly or less than the wild type.

For the molecule “RGS3L-N460A (GAP-deficient mutant of the long isoform of regulator of G protein signaling 3) (from UniProt P49796-1 1-519)”, the binding result in assay [1] is reported as “binds”.

B1: p190RhoGAP, endogenous in neonatal rat cardiomyocytes (protein, UniProt P81128 1-1499)
chain: MMMARKQDVRIPTYNISVVGLSGTEKEKGQCGIGKSCLCNRFVRPSADEFHLDHTSVLSTSDFGGRVVNNDHFLYWGEVSRSLEDCVECKMHIVEQTEFIDDQTFQPHRSTALQPYIKRAAATKLASAEKLMYFCTDQLGLEQDFEQKQMPDGKLLVDGFLLGIDVSRGMNRNFDDQLKFVSNLYNQLAKTKKPIVIVLTKCDEGVERYIRDAHTFALSKKNLQVVETSARSNVNVDLAFSTLVQLIDKSRGKTKIIPYFEALKQQSQQIATAKDKYEWLVSRIVKSHNENWLSVSRKMQASPEYQDYVYLEGTQKAKKLFLQHIHRLKHEHIERRRKLYLAALPLAFEALIPNLDEVDHLSCIKAKKLLETKPEFLKWFVVLEETPWDETSHIDNMENERIPFDLMDTVPAEQLYETHLEKLRNERKRAEMRRAFKENLETSPFITPGKPWEEARSFIMNEDFYQWLEESVYMDIYGKHQKQIIDRAKEEFQELLLEYSELFYELELDAKPSKEKMGVIQDVLGEEQRFKALQKLQAERDALILKHIHFVYHPTKETCPSCPACVDAKIEHLISSRFIRPSDRNQKNSLSDPNIDRINLVILGKDGLARELANEIRALCTNDDKYVIDGKMYELSLRPIEGNVRLPVNSFQTPTFQPHGCLCLYNSKESLSYVVESIEKSRESTLGRRDNHLVHLPLTLILVNKRGDTSGETLHSLIQQGQQIASKLQCVFLDPASAGIGYGRNINEKQISQVLKGLLDSKRNLNLVSSTASIKDLADVDLRIVMCLMCGDPFSADDILSPVLQSQTCKSSHCGSSNSVLLELPIGVHKKRIELSVLSYHSSFSIRKSRLVHGYIVFYSAKRKASLAMLRAFLCEVQDIIPIQLVALTDGAIDVLDNDLSREQLTEGEEIAQEIDGRFTSIPCSQPQHKLELFHPFFKDVVEKKNIIEATHMYDNVAEACSTTEEVFNSPRAGSPLCNSNLQDSEEDVEPPSYHLFREDATLPSLSKDHSKFSMELEGNDGLSFIMSNFESKLNNKVPPPVKPKPPVHFEITKDLSYLDQGHREGQRKSMSSSPWMPQDGFDPSDYAEPMDAVVKPRNEEENIYSVPHDSTQGKIITIRNINKAQSNGSGNGSDSEMDTSSLERGRKVSAVSKPVLYRTRCTRLGRFASYRTSFSVGSDDELGPIRKKEEDQASQGYKGDNAVIPYETDEDPRRRNILRSLRRNTKKPKPKPRPSITKATWESNYFGVPLTTVVTPEKPIPIFIERCIEYIEATGLSTEGIYRVSGNKSEMESLQRQFDQDHNLDLAEKDFTVNTVAGAMKSFFSELPDPLVPYSMQIDLVEAHKINDREQKLHALKEVLKKFPKENHEVFKYVISHLNRVSHNNKVNLMTSENLSICFWPTLMRPDFSSMDALTATRSYQTIIELFIQQCPFFFYNRPISEPPGAAPGSPSAMAPTVPFLTSTPATSQPSPPQSPPPTPQSPMQPLLSSQLQAEHTL
As to B1, the binding result in assay [2] and in assay [3] was “binds” each time.

B2: p190RhoGAP, overexpressed in HEK-293 cells (protein, UniProt P81128 1-1499)
chain: MMMARKQDVRIPTYNISVVGLSGTEKEKGQCGIGKSCLCNRFVRPSADEFHLDHTSVLSTSDFGGRVVNNDHFLYWGEVSRSLEDCVECKMHIVEQTEFIDDQTFQPHRSTALQPYIKRAAATKLASAEKLMYFCTDQLGLEQDFEQKQMPDGKLLVDGFLLGIDVSRGMNRNFDDQLKFVSNLYNQLAKTKKPIVIVLTKCDEGVERYIRDAHTFALSKKNLQVVETSARSNVNVDLAFSTLVQLIDKSRGKTKIIPYFEALKQQSQQIATAKDKYEWLVSRIVKSHNENWLSVSRKMQASPEYQDYVYLEGTQKAKKLFLQHIHRLKHEHIERRRKLYLAALPLAFEALIPNLDEVDHLSCIKAKKLLETKPEFLKWFVVLEETPWDETSHIDNMENERIPFDLMDTVPAEQLYETHLEKLRNERKRAEMRRAFKENLETSPFITPGKPWEEARSFIMNEDFYQWLEESVYMDIYGKHQKQIIDRAKEEFQELLLEYSELFYELELDAKPSKEKMGVIQDVLGEEQRFKALQKLQAERDALILKHIHFVYHPTKETCPSCPACVDAKIEHLISSRFIRPSDRNQKNSLSDPNIDRINLVILGKDGLARELANEIRALCTNDDKYVIDGKMYELSLRPIEGNVRLPVNSFQTPTFQPHGCLCLYNSKESLSYVVESIEKSRESTLGRRDNHLVHLPLTLILVNKRGDTSGETLHSLIQQGQQIASKLQCVFLDPASAGIGYGRNINEKQISQVLKGLLDSKRNLNLVSSTASIKDLADVDLRIVMCLMCGDPFSADDILSPVLQSQTCKSSHCGSSNSVLLELPIGVHKKRIELSVLSYHSSFSIRKSRLVHGYIVFYSAKRKASLAMLRAFLCEVQDIIPIQLVALTDGAIDVLDNDLSREQLTEGEEIAQEIDGRFTSIPCSQPQHKLELFHPFFKDVVEKKNIIEATHMYDNVAEACSTTEEVFNSPRAGSPLCNSNLQDSEEDVEPPSYHLFREDATLPSLSKDHSKFSMELEGNDGLSFIMSNFESKLNNKVPPPVKPKPPVHFEITKDLSYLDQGHREGQRKSMSSSPWMPQDGFDPSDYAEPMDAVVKPRNEEENIYSVPHDSTQGKIITIRNINKAQSNGSGNGSDSEMDTSSLERGRKVSAVSKPVLYRTRCTRLGRFASYRTSFSVGSDDELGPIRKKEEDQASQGYKGDNAVIPYETDEDPRRRNILRSLRRNTKKPKPKPRPSITKATWESNYFGVPLTTVVTPEKPIPIFIERCIEYIEATGLSTEGIYRVSGNKSEMESLQRQFDQDHNLDLAEKDFTVNTVAGAMKSFFSELPDPLVPYSMQIDLVEAHKINDREQKLHALKEVLKKFPKENHEVFKYVISHLNRVSHNNKVNLMTSENLSICFWPTLMRPDFSSMDALTATRSYQTIIELFIQQCPFFFYNRPISEPPGAAPGSPSAMAPTVPFLTSTPATSQPSPPQSPPPTPQSPMQPLLSSQLQAEHTL
Consider B2, for which the binding result in assay [4] was “binds”.
